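Luminescence from an EWS-FLI1 target-promoter (NR0B1) reporter, set against a CMV-promoter reporter, two days after silencing single genes in TC32 Ewing sarcoma cells.
Each siRNA was applied at 20 nM.
A z-score of the log NR0B1-over-CMV signal, less the median of siRNAs with the same seed; more negative means a stronger specific loss of the NR0B1 reporter.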

The strongest results of the screen are mostly left out here.
Sequences are the guide (antisense) strand, without overhang.

{"sequence": "AGAUGUAUUACUGACGGCC", "gene": "ZBTB33", "seed-corrected z-score": "-0.1354"}
{"sequence": "UAAGCGCACCACAUAGUUC", "gene": "GPD1L", "seed-corrected z-score": "-0.5073"}
{"sequence": "UCACGAAUAUUUUCCACGC", "gene": "SMC1B", "seed-corrected z-score": "-0.04868"}
{"sequence": "UUAGCCUCAGUUUUGCAUA", "gene": "DEFB121", "seed-corrected z-score": "0.002792"}
{"sequence": "AUAGAUCCCAGGGAAAUCU", "gene": "COPS8", "seed-corrected z-score": "-0.06743"}
{"sequence": "CAGGUUUCAGGGUCUGGUC", "gene": "MIA", "seed-corrected z-score": "1.38"}
{"sequence": "UGCAUACUCAGUUAAAUCC", "gene": "FUNDC1", "seed-corrected z-score": "0.1778"}
{"sequence": "UCAUUCACGAUGUAUUUGC", "gene": "KDM8", "seed-corrected z-score": "-0.3773"}
{"sequence": "UUUGAGAUCUCAAUAAAGA", "gene": "LOC440040", "seed-corrected z-score": "0.1814"}
{"sequence": "UUAGAAAGUAGUGGAUAGC", "gene": "LOC440084", "seed-corrected z-score": "-1.444"}
{"sequence": "UUGUAGUCCUUUAAGACCC", "gene": "CAP2", "seed-corrected z-score": "0.4876"}
{"sequence": "UCUGUGACGAUGACAUCCG", "gene": "ALDH18A1", "seed-corrected z-score": "0.07498"}
{"sequence": "UUCAAAUUAACAACCACGA", "gene": "CSNK1E", "seed-corrected z-score": "-0.6747"}
{"sequence": "UCUUGUACCAUAUGGACUC", "gene": "PNMA1", "seed-corrected z-score": "-0.5451"}
{"sequence": "AAACGAUCUAGGAAGACUG", "gene": "PLCB4", "seed-corrected z-score": "-0.2219"}
{"sequence": "UCUCUUACAGUCGCAGCUC", "gene": "DHX35", "seed-corrected z-score": "0.2009"}
{"sequence": "UGGGUUUUCCGAGAAGUGG", "gene": "SLC10A3", "seed-corrected z-score": "-0.1209"}
{"sequence": "AAAGGUAGAGAUAAUAACU", "gene": "ABCC6P1", "seed-corrected z-score": "0.7026"}
{"sequence": "UAUUCAUAGACAUCGGAGG", "gene": "LOC401410", "seed-corrected z-score": "0.06691"}
{"sequence": "UCUCAAUCCAUUCAGGGUG", "gene": "ELAVL2", "seed-corrected z-score": "0.2581"}
{"sequence": "AUUGGUGAAGGAGAGUUGC", "gene": "ZMYM3", "seed-corrected z-score": "0.1004"}
{"sequence": "UAAACGUAUAAAAUCUGUC", "gene": "MTF2", "seed-corrected z-score": "0.6461"}
{"sequence": "UGAGUGUCCAAGAUGCUGU", "gene": "ARPIN", "seed-corrected z-score": "-0.2014"}
{"sequence": "UACGUGACCACAGCAUCUC", "gene": "SLC12A2", "seed-corrected z-score": "-0.249"}
{"sequence": "UACUGAUCCCAAUCAUGCC", "gene": "PDCD7", "seed-corrected z-score": "0.2411"}
{"sequence": "UGUGAUUCAGGUAAAUAUG", "gene": "TYMS", "seed-corrected z-score": "0.2448"}
{"sequence": "UGCAUAAGCAUUGUUGACC", "gene": "DHRS1", "seed-corrected z-score": "-0.287"}
{"sequence": "UUCAUUGUAAGUGUCAGUG", "gene": "UGT3A1", "seed-corrected z-score": "0.6074"}
{"sequence": "UCUGGUACUGGAAAAGUGG", "gene": "ZNF333", "seed-corrected z-score": "0.5836"}
{"sequence": "UAAGUCCUCGCUCCUAGGC", "gene": "DNAJC30", "seed-corrected z-score": "-0.2555"}
{"sequence": "UUCUGGAAUGGGUACCUCC", "gene": "E2F5", "seed-corrected z-score": "-0.1122"}
{"sequence": "AUUGCAACUAUGAUGAUGC", "gene": "TMEM27", "seed-corrected z-score": "0.9731"}
{"sequence": "UCAGUACUCAGCUUAUCAC", "gene": "TIPARP", "seed-corrected z-score": "-0.8807"}
{"sequence": "UCAUGAAGAGGUGAUGGGC", "gene": "RAMP1", "seed-corrected z-score": "1.514"}
{"sequence": "UUACCUUGAAGAUUAUUGC", "gene": "NLRP8", "seed-corrected z-score": "1.114"}
{"sequence": "UUCUCUGUACAAAACUUCU", "gene": "SREBF1", "seed-corrected z-score": "-0.7209"}
{"sequence": "AUUGGAAGUCCUGAUAUCC", "gene": "CHCHD5", "seed-corrected z-score": "1.638"}
{"sequence": "UGAAGUAGAGAAACAGCCC", "gene": "HLA-DRB7", "seed-corrected z-score": "0.4894"}
{"sequence": "ACCCAUCUUGCGAAAGUUC", "gene": "LINC01144", "seed-corrected z-score": "-0.1897"}
{"sequence": "UGUCUGCUGAUUGCUGAGG", "gene": "FES", "seed-corrected z-score": "-0.4074"}
{"sequence": "UUCACGGUCAGGUUACUCC", "gene": "LCN8", "seed-corrected z-score": "0.5718"}

For reference, 2 entries once more:

Sequence,gene,seed-corrected z-score
UUCAAAUUAACAACCACGA,CSNK1E,-0.6747
AUAGAUCCCAGGGAAAUCU,COPS8,-0.06743

From PubChem BioAssay record AID1159506 (NCATS, 2015).